The test system of the test is L1210 leukemia ip in BDF1 mice, survival T/C. The test is described as follows: NCI In Vivo Anticancer Drug Screen. Data for tumor model L1210 Leukemia (intraperitoneal) in B6D2F1 (BDF1) mice. The following applies: T/C endpoint: mean survival time, higher T/C = longer survival.
Setting [1] is: dose: 200.0 mg/kg/injection, schedule: Q01DX009 (ip), vehicle: saline.
The mark [2] stands for this setting: dose: 400.0 mg/kg/injection, schedule: Q01DX009 (ip), vehicle: saline.
[3] abbreviates: dose: 100.0 mg/kg/injection, schedule: Q01DX009 (ip), vehicle: saline.
Setting [4] is: dose: 400.0 mg/kg/injection, schedule: Q04DX003 (ip), vehicle: saline.
The mark [5] stands for this setting: dose: 100.0 mg/kg/injection, schedule: Q01DX001 (ip), vehicle: Klucel (hydroxypropylcellulose) (HPC).
Where [6] appears, read: dose: 200.0 mg/kg/injection, schedule: Q01DX001 (ip), vehicle: Klucel (hydroxypropylcellulose) (HPC).
Where [7] appears, read: dose: 400.0 mg/kg/injection, schedule: Q01DX001 (ip), vehicle: Klucel (hydroxypropylcellulose) (HPC).
The mark [8] stands for this setting: dose: 400.0 mg/kg/injection, schedule: Q04DX002 (ip), vehicle: Klucel (hydroxypropylcellulose) (HPC).
The mark [9] stands for this setting: dose: 400.0 mg/kg/injection, schedule: Q01DX001 (ip), vehicle: saline.
[10] abbreviates: dose: 400.0 mg/kg/injection, schedule: Q04DX003 (ip), vehicle: Klucel (hydroxypropylcellulose) (HPC).
Setting [11] is: dose: 100.0 mg/kg/injection, schedule: Q01DX009 (ip), vehicle: saline with Tween-80.
Where [12] appears, read: dose: 200.0 mg/kg/injection, schedule: Q01DX009 (ip), vehicle: saline with Tween-80.

Structures are written as SMILES. The list does not hold the whole screen: it gathers tests that were run many times, whatever their T/C, doses with no T/C, and many T/C values between a quarter and a half above the control. Other doses and runs of a compound stand elsewhere. T/C: endpoint of the treated group in % of that of the vehicle group. Some doses have a count of surviving animals in place of a T/C: the source holds a T/C of zero for them, seemingly a mark for toxic or unscored doses. Some doses without a T/C left all or most animals alive at the check, yet need not have been tolerated: the source hardly ever lists a survival T/C far under the control, and the zero likely stands for such cases as well. Survivors were counted at the toxicity check, usually on the fifth day, unless a day is given; later deaths do not show. Schedule codes are those of the source, taken here to give the interval after Q, in days (D) or hours (H), and the number of doses after X. Some schedules carry Z or #; the key to these is not given. Where survival is the endpoint, this PubChem deposit counts one and a half times the control or more as active, and values a quarter to a half above the control carry no call in these data; other NCI protocols may use other cut-offs. Some entries hold several experiments; their values stand side by side, smallest first. Brackets with × give the number of equal values in this list.

Turning to `COc1ccc(C(C(C(C)=O)C(C)=O)C(C(C)=O)C(C)=O)cc1`, the survivor count (dose: 400.0 mg/kg/injection, schedule: Q04DX003 (ip), vehicle: saline with Tween-80) is reported as 4 of 6.
Regarding `CCC(C)C(CCN(C)CC)(CNC(=O)CN(CC)CC)c1cccc2ccccc12` (stereo not given), the survivor count runs as follows: under setting [1], 0 of 6; (dose: 200.0 mg/kg/injection, schedule: Q04DX002 (ip), vehicle: saline) 3 of 3; under setting [2], 0 of 6.
On to `COc1ccc(/C=C/[N+](=O)[O-])cc1O`, for which the survivor count by setting is: under setting [3], 3 of 6; under setting [4], 0 of 6.
In the case of `CC(=O)Nc1cc(Cl)c(Cl)c([N+](=O)[O-])c1`, under “dose: 400.0 mg/kg/injection, schedule: Q01DX009 (ip), vehicle: Klucel (hydroxypropylcellulose) (HPC)”, the survivor count was 0 of 6.
Turning to `CC1(C)N=C(N)N=C(N)N1c1cccc(OCCCc2ccccc2)c1`, the survivor count reads like this: under setting [5], 0 of 6; under setting [6], 0 of 6; under setting [7], 0 of 6.
Consider `Nc1nc(N)c(CCCc2ccccc2)c(N)n1`, for which the survivor count is, setting by setting: (dose: 50.0 mg/kg/injection, schedule: Q04DX002 (ip), vehicle: Klucel (hydroxypropylcellulose) (HPC)) 0 of 3; (dose: 200.0 mg/kg/injection, schedule: Q04DX002 (ip), vehicle: Klucel (hydroxypropylcellulose) (HPC)) 3 of 3.
Regarding `CC(=O)Cc1cc(C)nc(/N=C(\N)Nc2ccccc2)n1`, under setting [8], the survivor count is given as 1 of 3.
On to `CSC1c2ccccc2-c2ccccc21`, for which the T/C (dose: 100.0 mg/kg/injection, schedule: Q01DX001 (ip), vehicle: carboxymethylcellulose (CMC)) was 128 % of control.
`CC(C)NC(=O)CN=NNc1nc[nH]c1C(N)=O`: the survivor count is listed as 3 of 6 under setting [5], 1 of 6 under setting [6] and 0 of 6 under setting [7].
For the compound `OCCNC(=S)Nc1cccc(C(F)(F)F)c1`, the survivor count (dose: 400.0 mg/kg/injection, schedule: Q01DX009 (ip), vehicle: saline with Tween-80) is 2 of 3.
For the compound `COC(=O)COc1ccc(Cl)c2ccccc12`, the survivor count (dose: 100.0 mg/kg/injection, schedule: Q04DX002 (ip), vehicle: Klucel (hydroxypropylcellulose) (HPC)) is 3 of 3.
`CCSCN(C)C`: the survivor count runs as follows: under setting [1], 3 of 6; under setting [9], 2 of 6.
As to `CC(C)OC(=O)Nc1ccc(Br)cc1`, the survivor count under setting [8] is given as 3 of 3.
On to `Cc1ccc(Cl)cc1NC(=O)Nc1cccc2ccc(O)cc12`, for which the survivor count (dose: 200.0 mg/kg/injection, schedule: Q04DX003 (ip), vehicle: saline with Tween-80) is on record as 6 of 6.
For `CN(C)/C=C1\C(=O)Nc2c1c(=O)n(C)c(=O)n2C`, the survivor count under setting [1] is on record as 0 of 3.
Turning to `NNC(=O)CCC(N)C(=O)O` (stereo not given), the survivor count reads like this: (dose: 129.15 mg/kg/injection, schedule: Q01DX Z (ip), vehicle: carboxymethylcellulose (CMC)) 10 of 10; (dose: 172.2 mg/kg/injection, schedule: Q01DX Z (ip), vehicle: carboxymethylcellulose (CMC)) 9 of 10; (dose: 215.25 mg/kg/injection, schedule: Q01DX Z (ip), vehicle: carboxymethylcellulose (CMC)) 7 of 10.
In the case of `CCCCCCCCCCCCCCCCCOc1ccc(I)cc1`, the survivor count under setting [10] was 6 of 6.
With `CCCCCCCCCCCC1=NCCN1`, the survivor count is reported as 1 of 6 (dose: 50.0 mg/kg/injection, schedule: Q01DX009 (ip), vehicle: saline with Tween-80); 1 of 6 under setting [11]; 4 of 6 (dose: 100.0 mg/kg/injection, schedule: Q04DX003 (ip), vehicle: saline); 0 of 6 (dose: 200.0 mg/kg/injection, schedule: Q04DX003 (ip), vehicle: saline); 0 of 6 under setting [4].
In the case of `COc1ccc(C(=Nc2ccc(C)cc2)c2ccccc2)cc1`, under “dose: 25.0 mg/kg/injection, schedule: Q01DX009 (ip), vehicle: Klucel (hydroxypropylcellulose) (HPC)”, the survivor count is given as 3 of 6.
On to `COc1cc(N)c2nccc(N(C)C)c2c1`, for which the survivor count under setting [2] is 2 of 6.
In the case of `CN(C)C(=N)[Se]`, the survivor count was 2 of 6 (dose: 25.0 mg/kg/injection, schedule: Q01DX009 (ip), vehicle: saline); 0 of 6 under setting [3]; 0 of 6 under setting [1]; 0 of 6 under setting [2].
Take `CC(C)(C)N=C=N[N+](C)(C)Cc1ccccc1`: the survivor count (dose: 50.0 mg/kg/injection, schedule: Q01DX009 (ip), vehicle: saline) is 2 of 6; the survivor count under setting [3] was 0 of 6; the survivor count under setting [1] was 0 of 6; the survivor count under setting [2] was 0 of 6.
With `CCCCCCCCCCCCCS`, the survivor count (dose: 300.0 mg/kg/injection, schedule: Q01DX Z (ip), vehicle: saline) is reported as 3 of 6.
With `Cc1cc[n+](C2CC(C)(C)c3ccccc3C2=O)cc1` (stereo not given), the survivor count is, setting by setting: under setting [5], 3 of 6; under setting [6], 0 of 6; under setting [7], 0 of 6.
`CC1C(C(=O)c2ccccc2)C(c2ccccc2)OP1(c1ccccc1)(c1ccccc1)c1ccccc1` (stereo not given): the survivor count runs as follows: (dose: 100.0 mg/kg/injection, schedule: Q01DX001 (ip), vehicle: saline with Tween-80) 0 of 6; (dose: 200.0 mg/kg/injection, schedule: Q01DX001 (ip), vehicle: saline with Tween-80) 0 of 6; (dose: 400.0 mg/kg/injection, schedule: Q01DX001 (ip), vehicle: saline with Tween-80) 0 of 6.
As to `COc1cccc(NC(=O)NC(C)(C)C)c1`, the T/C reads like this: under setting [11], 94 (2×), 98, 101 % of control; under setting [12], 94, 105, 115 % of control. Further, under setting [12], the survivor count is 3 of 3.
Take `CC1(C)N=C(N)N=C(N)N1c1cccc(OCCOc2ccccc2N)c1`: the survivor count reads like this: under setting [5], 0 of 3; under setting [6], 0 of 3; under setting [7], 0 of 3.
As for `CN1CN(c2ccccc2)C2(CCN(CCCCCCCF)CC2)C1=O`, the survivor count was 0 of 6 (dose: 75.0 mg/kg/injection, schedule: Q04DX003 (ip), vehicle: Klucel (hydroxypropylcellulose) (HPC)); 0 of 6 (dose: 150.0 mg/kg/injection, schedule: Q04DX003 (ip), vehicle: Klucel (hydroxypropylcellulose) (HPC)); 0 of 6 (dose: 300.0 mg/kg/injection, schedule: Q04DX003 (ip), vehicle: Klucel (hydroxypropylcellulose) (HPC)).
Take `CCCCCCCCCCCCCCCCCCN1CNC(=O)NC1`: the survivor count under setting [10] is given as 6 of 6.
In the case of `CCN(C)c1cc2c3c(c1)CCCN3CCC2`, the survivor count reads like this: (dose: 10.0 mg/kg/injection, schedule: Q01DX009 (ip), vehicle: saline) 3 of 6; (dose: 20.0 mg/kg/injection, schedule: Q01DX009 (ip), vehicle: saline) 1 of 6.
As for `CC1(C)C2CC=C(CCO)C1C2` (stereo not given), under setting [9], the survivor count is given as 2 of 4.
For `O=C(/C(=C\c1ccccc1)CO)c1ccccc1`, the survivor count is, setting by setting: (dose: 125.0 mg/kg/injection, schedule: Q01DX009 (ip), vehicle: saline with Tween-80) 5 of 6; (dose: 250.0 mg/kg/injection, schedule: Q01DX009 (ip), vehicle: saline with Tween-80) 1 of 6.

For the origin of these results see PubChem BioAssay AID248 (DTP/NCI, 2004).
